Data from article PMC10936183.
No constants are given. Whether binding was seen depends on the method and setting. In cells and extracts the contact can be indirect. Some binding calls cover weakened binding; strength is not graded here.

The chains behind the UniProt entries cited, without tags or fusion partners.
UniProt O00232: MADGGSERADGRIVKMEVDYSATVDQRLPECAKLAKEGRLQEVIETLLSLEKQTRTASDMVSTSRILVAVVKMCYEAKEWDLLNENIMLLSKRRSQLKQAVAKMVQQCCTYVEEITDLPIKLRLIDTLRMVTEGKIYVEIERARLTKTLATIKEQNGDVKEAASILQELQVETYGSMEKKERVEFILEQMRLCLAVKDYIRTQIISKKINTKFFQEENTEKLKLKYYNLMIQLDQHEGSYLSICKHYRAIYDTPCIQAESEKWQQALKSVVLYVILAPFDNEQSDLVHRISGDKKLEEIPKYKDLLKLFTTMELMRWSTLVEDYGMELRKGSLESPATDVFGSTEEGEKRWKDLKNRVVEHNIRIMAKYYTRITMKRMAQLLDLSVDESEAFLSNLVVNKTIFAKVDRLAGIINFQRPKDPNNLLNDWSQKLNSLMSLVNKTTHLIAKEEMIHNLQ
UniProt P08962: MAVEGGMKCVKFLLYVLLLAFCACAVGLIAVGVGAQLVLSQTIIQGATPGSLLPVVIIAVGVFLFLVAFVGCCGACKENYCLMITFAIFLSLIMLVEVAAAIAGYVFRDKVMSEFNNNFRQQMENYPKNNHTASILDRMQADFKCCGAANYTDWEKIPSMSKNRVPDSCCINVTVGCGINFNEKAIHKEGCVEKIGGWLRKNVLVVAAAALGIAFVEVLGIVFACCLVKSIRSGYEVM

Target: PSMD12-GFP (UniProt O00232)
Test: co-IP; HEK293T transfected with a GFP-tagged bait (prey endogenous or co-transfected); lysed in NP-40 lysis buffer at 48 hpt; anti-GFP beads, 4 h or overnight at 4°C; Western blot (Fig. 3C, 4C, 4D, 4H; Fig. 5B in CD63-knockout HEK293T-sgCD63 cells)

With “endogenous CD63 (from UniProt P08962 1-238)” the binding was “binds”.
